Experimental data reported in EPA's ToxValDB 9.5.

System: Rattus norvegicus
Conditions: reproduction developmental; duration: 19 days; inhalation; Sprague-Dawley

In the case of CCCCCCCCCO [Nonanol], the NOAEL is reported as 150 mg/m3.
